Results are given in words; binding and its absence hold for the method and conditions named. A result given as binding can be weak or reduced; the word gives no strength.
Key:
[1] = target: T1, Curling Leaf 1 (CL1), MYB transcription factor of the KANADI family (rice (Oryza sativa L.)) (UniProt Q0J235); assay: two-hybrid; pairwise verification: AD vector with the target gene co-transformed with BD-CL1 into yeast; 30 °C; cultures spotted on SD/-Leu-Trp and SD/-Leu-Trp-His-Ade
T1 sequence: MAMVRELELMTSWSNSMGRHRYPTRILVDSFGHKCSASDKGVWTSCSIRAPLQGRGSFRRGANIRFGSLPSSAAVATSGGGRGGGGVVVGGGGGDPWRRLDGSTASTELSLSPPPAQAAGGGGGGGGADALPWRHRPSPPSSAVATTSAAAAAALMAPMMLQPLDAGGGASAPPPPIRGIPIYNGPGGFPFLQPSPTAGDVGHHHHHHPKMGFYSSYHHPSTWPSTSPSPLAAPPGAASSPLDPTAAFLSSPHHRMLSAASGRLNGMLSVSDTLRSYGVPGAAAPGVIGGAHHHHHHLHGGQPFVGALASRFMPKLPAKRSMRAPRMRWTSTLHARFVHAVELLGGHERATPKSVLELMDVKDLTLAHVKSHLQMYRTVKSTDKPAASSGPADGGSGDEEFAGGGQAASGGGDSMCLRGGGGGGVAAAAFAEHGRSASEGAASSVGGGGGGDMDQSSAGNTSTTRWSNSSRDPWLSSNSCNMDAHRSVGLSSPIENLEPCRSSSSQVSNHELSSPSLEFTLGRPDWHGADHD

[2] = target: T1, Curling Leaf 1 (CL1), MYB transcription factor of the KANADI family (rice (Oryza sativa L.)); assay: two-hybrid; library screen: pGBKT7-CL1 as bait against a rice whole-tissue yeast library; selection on medium lacking histidine and adenine; 45 clones, 8 nonredundant genes

binding [1]	binding [2]	Substance
binds	binds	OsMFS1 (MFS), called AP2/ERF protein MFS in the abstract (rice (Oryza sativa L.))
binds	binds	SRS5, alpha-tubulin protein (rice (Oryza sativa L.))

Source: article PMC10490398
